Data from patent publication US20040185568A1, “Sensor storage solution, sensor calibration solution and sensor” (TANITA CORPORATION, priority 2003, published 2004).

Assay: Analysis of the sensor surfaces after immersion
Settings: sensors immersed in storage solutions 1 and 2

| SMILES | attachment of the compound to the sensor surface |
| --- | --- |
| Cn1sc(Cl)cc1=O [5-chloro-2-methyl-4-isothiazolin-3-one] | attached to the sensors |
| Cn1sccc1=O [2-methyl-4-isothiazolin-3-one] | attached to the sensors |
